The list is a part of this screen's results and no random one: it gathers tests that were run many times, whatever their T/C, doses with no T/C, and many T/C values between a quarter and a half above the control. Further doses and runs are listed elsewhere. T/C: endpoint of the treated group in % of that of the vehicle group. Some entries give survivors of the animals treated and no T/C: the source files T/C as zero there, which appears to mark a toxic dose or a test without result, not a measured value. Some doses without a T/C left all or most animals alive at the check, yet need not have been tolerated: survival well below the control is almost never listed, so the zero probably covers shortened survival too. Counts of survivors are from the toxicity check (mostly the fifth day) where no day follows; animals may have died later. Schedules are NCI's codes, taken here to give the interval after Q, in days (D) or hours (H), and the number of doses after X. For survival time, the PubChem record calls one and a half times the control and up active, and a quarter to a half above the control has no call in these data; cut-offs in other NCI protocols can differ. Some T/C values are followed by the survivors on the day toxicity was checked, most often the fifth; without a count, all were alive then.
System: L1210 leukemia ip in BDF1 mice, survival T/C
Experiment: NCI In Vivo Anticancer Drug Screen. Data for tumor model L1210 Leukemia (intraperitoneal) in B6D2F1 (BDF1) mice
Conditions: T/C endpoint: mean survival time, higher T/C = longer survival
[1] = dose: 200.0 mg/kg/injection, schedule: Q01DX001 (ip), vehicle: acetone
[2] = dose: 400.0 mg/kg/injection, schedule: Q01DX001 (ip), vehicle: acetone
[3] = dose: 400.0 mg/kg/injection, schedule: Q04DX003 (ip), vehicle: Klucel (hydroxypropylcellulose) (HPC)

## CCNCCCNCC(Cc1ccccc1)c1ccccc1 (stereo not given)
dose: 200.0 mg/kg/injection, schedule: Q04DX002 (ip), vehicle: saline
  survivor count: 1 of 3
dose: 400.0 mg/kg/injection, schedule: Q04DX002 (ip), vehicle: saline
  survivor count: 0 of 3

## CC1C2CCC(C2)C1C(=O)O (stereo not given)
dose: 200.0 mg/kg/injection, schedule: Q04DX003 (ip), vehicle: saline with Tween-80
  survivor count: 6 of 6

## CCn1cnc2c(C(F)(F)F)nc(N)nc21
dose: 75.0 mg/kg/injection, schedule: Q01DX009 (ip), vehicle: saline with Tween-80
  survivor count: 2 of 6
dose: 75.0 mg/kg/injection, schedule: Q04DX003 (ip), vehicle: acetone
  survivor count: 0 of 6
dose: 100.0 mg/kg/injection, schedule: Q01DX001 (ip), vehicle: acetone
  survivor count: 3 of 6
dose: 115.0 mg/kg/injection, schedule: Q01DX009 (ip), vehicle: saline with Tween-80
  survivor count: 0 of 6
dose: 115.0 mg/kg/injection, schedule: Q04DX003 (ip), vehicle: acetone
  survivor count: 0 of 6
dose: 170.0 mg/kg/injection, schedule: Q04DX003 (ip), vehicle: acetone
  survivor count: 0 of 6
[1]
  survivor count: 0 of 6
[2]
  survivor count: 0 of 6

## CCOc1ccc([N+](=O)[O-])cc1CNCCCl
dose: 200.0 mg/kg/injection, schedule: Q04DX003 (ip), vehicle: Klucel (hydroxypropylcellulose) (HPC)
  survivor count: 6 of 6
[3]
  survivor count: 6 of 6

## O=c1cc(S(=O)(=O)c2ccccc2)[nH]c(=O)[nH]1
[3]
  survivor count: 1 of 6

## CCC(C)C(CCCCN(C)C)(CNC(=O)CN(CC)CC)c1cccc2ccccc12 (stereo not given)
dose: 200.0 mg/kg/injection, schedule: Q01DX009 (ip), vehicle: saline
  survivor count: 0 of 6
dose: 400.0 mg/kg/injection, schedule: Q01DX009 (ip), vehicle: saline
  survivor count: 0 of 6

## O=C(Nc1cccc(C(=O)O)c1)Nc1ccc(Cl)c(C(F)(F)F)c1
dose: 400.0 mg/kg/injection, schedule: Q01DX009 (ip), vehicle: saline with Tween-80
  survivor count: 6 of 6

## CN1CCC2CCCCC2C1Cc1ccc(CC2C3CCCCC3CCN2C)cc1 (stereo not given)
dose: 10.0 mg/kg/injection, schedule: Q01DX001 (ip), vehicle: carboxymethylcellulose (CMC)
  survivor count: 0 of 6
dose: 15.0 mg/kg/injection, schedule: Q01DX001 (ip), vehicle: carboxymethylcellulose (CMC)
  survivor count: 1 of 6
dose: 30.0 mg/kg/injection, schedule: Q01DX001 (ip), vehicle: carboxymethylcellulose (CMC)
  survivor count: 0 of 6
dose: 60.0 mg/kg/injection, schedule: Q01DX001 (ip), vehicle: carboxymethylcellulose (CMC)
  survivor count: 0 of 6
dose: 75.0 mg/kg/injection, schedule: Q01DX001 (ip), vehicle: carboxymethylcellulose (CMC)
  survivor count: 0 of 6
dose: 150.0 mg/kg/injection, schedule: Q01DX001 (ip), vehicle: carboxymethylcellulose (CMC)
  survivor count: 0 of 6
dose: 300.0 mg/kg/injection, schedule: Q01DX001 (ip), vehicle: carboxymethylcellulose (CMC)
  survivor count: 0 of 6

## Cc1nc(Cl)c(C#N)nc1C
dose: 400.0 mg/kg/injection, schedule: Q04DX003 (ip), vehicle: saline with Tween-80
  survivor count: 5 of 6

## CCOC(=O)C(C[N+](C)(CC)CC)c1ccccc1 (stereo not given)
dose: 200.0 mg/kg/injection, schedule: Q01DX001 (ip), vehicle: carboxymethylcellulose (CMC)
  T/C: 126 % of control

## CCCCCCCCCCCCCCCCCC1=NCCN1CCN
dose: 100.0 mg/kg/injection, schedule: Q01DX009 (ip), vehicle: saline
  survivor count: 3 of 6
[1]
  survivor count: 0 of 6
[2]
  survivor count: 0 of 6

## NC(=S)NCC12CC3CC(CC(C3)C1)C2
dose: 12.0 mg/kg/injection, schedule: Q04DX002 (ip), vehicle: Klucel (hydroxypropylcellulose) (HPC)
  T/C: 141 % of control [2 of 3 alive]
dose: 25.0 mg/kg/injection, schedule: Q04DX002 (ip), vehicle: Klucel (hydroxypropylcellulose) (HPC)
  survivor count: 3 of 3
dose: 50.0 mg/kg/injection, schedule: Q04DX002 (ip), vehicle: Klucel (hydroxypropylcellulose) (HPC)
  survivor count: 3 of 3
dose: 100.0 mg/kg/injection, schedule: Q04DX002 (ip), vehicle: Klucel (hydroxypropylcellulose) (HPC)
  survivor count: 0 of 3
dose: 200.0 mg/kg/injection, schedule: Q04DX002 (ip), vehicle: Klucel (hydroxypropylcellulose) (HPC)
  survivor count: 0 of 3
dose: 400.0 mg/kg/injection, schedule: Q04DX002 (ip), vehicle: Klucel (hydroxypropylcellulose) (HPC)
  survivor count: 0 of 3
